Source: the supplement of paper PMC12819154, “High-throughput peptide-centric local stability assay extends protein–ligand identification to membrane proteins, tissues and bacteria” (Nature Structural & Molecular Biology, 2025)
Some of the results follow. Small differences around the control level are noise.

Sequences of proteins named here, by UniProt entry; tags and fusion partners are left off. A change or cut given only in a name is not applied to a line headed by its entry.
UniProt Q9NW81: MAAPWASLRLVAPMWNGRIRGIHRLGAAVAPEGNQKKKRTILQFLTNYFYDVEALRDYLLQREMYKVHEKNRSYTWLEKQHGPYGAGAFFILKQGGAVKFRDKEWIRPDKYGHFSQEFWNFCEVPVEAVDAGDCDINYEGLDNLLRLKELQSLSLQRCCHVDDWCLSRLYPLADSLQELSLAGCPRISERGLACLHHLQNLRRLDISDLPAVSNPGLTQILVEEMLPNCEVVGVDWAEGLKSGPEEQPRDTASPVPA
UniProt Q9HCK1: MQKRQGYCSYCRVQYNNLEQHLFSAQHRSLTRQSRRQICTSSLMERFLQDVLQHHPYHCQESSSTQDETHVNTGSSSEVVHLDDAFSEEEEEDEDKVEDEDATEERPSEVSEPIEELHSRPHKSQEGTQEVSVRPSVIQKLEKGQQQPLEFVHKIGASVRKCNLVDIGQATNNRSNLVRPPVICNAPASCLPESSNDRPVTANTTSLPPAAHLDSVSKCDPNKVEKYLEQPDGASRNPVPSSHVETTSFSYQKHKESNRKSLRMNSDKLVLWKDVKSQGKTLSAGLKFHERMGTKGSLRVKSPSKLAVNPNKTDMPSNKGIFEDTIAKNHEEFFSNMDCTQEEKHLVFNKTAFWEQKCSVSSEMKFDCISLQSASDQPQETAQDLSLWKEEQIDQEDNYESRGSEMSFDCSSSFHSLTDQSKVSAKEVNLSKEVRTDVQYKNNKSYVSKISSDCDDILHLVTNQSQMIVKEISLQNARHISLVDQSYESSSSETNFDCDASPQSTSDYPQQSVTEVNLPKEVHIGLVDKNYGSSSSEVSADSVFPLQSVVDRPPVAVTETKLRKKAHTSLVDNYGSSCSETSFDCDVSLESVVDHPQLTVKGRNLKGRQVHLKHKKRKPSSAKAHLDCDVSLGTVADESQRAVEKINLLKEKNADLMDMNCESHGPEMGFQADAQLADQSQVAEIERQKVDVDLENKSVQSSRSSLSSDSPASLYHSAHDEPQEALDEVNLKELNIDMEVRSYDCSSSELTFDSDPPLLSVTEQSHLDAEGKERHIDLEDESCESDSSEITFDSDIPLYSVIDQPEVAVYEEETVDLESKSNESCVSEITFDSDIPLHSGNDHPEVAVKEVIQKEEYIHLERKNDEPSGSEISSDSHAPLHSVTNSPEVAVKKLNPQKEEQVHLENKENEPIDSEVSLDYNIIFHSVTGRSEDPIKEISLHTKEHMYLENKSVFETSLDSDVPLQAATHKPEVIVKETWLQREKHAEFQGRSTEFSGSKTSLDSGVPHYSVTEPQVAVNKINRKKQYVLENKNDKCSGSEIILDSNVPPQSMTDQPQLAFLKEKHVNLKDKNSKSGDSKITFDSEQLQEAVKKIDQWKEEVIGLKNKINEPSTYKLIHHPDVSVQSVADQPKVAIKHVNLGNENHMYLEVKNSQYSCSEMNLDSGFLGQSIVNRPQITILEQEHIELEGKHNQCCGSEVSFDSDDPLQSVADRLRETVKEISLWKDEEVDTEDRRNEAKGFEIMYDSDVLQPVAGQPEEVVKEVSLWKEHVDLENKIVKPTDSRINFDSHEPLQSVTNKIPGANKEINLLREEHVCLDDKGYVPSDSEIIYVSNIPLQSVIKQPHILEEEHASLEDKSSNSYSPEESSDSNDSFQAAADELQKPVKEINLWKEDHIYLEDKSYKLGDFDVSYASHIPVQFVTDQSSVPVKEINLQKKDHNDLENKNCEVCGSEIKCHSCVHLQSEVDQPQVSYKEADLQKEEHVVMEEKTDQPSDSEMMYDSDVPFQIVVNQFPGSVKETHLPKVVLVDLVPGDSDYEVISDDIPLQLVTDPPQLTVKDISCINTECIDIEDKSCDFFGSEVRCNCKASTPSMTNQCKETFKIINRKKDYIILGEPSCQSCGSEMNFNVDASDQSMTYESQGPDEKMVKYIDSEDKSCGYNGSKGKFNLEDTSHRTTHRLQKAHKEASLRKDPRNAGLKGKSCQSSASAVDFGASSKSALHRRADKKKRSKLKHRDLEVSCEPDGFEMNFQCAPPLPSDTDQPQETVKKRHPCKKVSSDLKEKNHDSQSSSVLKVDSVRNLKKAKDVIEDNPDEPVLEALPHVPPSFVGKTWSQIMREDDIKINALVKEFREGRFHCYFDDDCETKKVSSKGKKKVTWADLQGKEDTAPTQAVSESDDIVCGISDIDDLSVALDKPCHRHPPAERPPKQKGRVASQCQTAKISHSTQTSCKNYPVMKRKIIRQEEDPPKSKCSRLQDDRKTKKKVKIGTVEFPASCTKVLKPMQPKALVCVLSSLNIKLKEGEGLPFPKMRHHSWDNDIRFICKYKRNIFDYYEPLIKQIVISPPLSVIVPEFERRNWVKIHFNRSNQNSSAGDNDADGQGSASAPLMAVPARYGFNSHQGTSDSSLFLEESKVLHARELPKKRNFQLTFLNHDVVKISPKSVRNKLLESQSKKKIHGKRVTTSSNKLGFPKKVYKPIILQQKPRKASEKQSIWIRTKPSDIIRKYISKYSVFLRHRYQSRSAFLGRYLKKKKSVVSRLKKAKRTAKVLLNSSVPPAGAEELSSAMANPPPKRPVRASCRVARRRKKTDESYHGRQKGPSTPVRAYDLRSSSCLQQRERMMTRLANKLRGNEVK
UniProt Q9HD15: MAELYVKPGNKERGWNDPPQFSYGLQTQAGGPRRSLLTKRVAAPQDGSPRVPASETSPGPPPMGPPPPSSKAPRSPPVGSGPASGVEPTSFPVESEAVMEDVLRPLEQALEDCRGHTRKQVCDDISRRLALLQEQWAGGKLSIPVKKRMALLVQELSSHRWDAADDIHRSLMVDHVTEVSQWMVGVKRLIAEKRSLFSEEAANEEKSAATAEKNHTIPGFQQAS
UniProt Q9NQP4, whole entry: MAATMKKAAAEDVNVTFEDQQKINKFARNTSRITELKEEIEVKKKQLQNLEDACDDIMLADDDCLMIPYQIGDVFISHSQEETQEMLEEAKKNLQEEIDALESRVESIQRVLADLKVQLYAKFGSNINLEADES
UniProt Q9HCR9: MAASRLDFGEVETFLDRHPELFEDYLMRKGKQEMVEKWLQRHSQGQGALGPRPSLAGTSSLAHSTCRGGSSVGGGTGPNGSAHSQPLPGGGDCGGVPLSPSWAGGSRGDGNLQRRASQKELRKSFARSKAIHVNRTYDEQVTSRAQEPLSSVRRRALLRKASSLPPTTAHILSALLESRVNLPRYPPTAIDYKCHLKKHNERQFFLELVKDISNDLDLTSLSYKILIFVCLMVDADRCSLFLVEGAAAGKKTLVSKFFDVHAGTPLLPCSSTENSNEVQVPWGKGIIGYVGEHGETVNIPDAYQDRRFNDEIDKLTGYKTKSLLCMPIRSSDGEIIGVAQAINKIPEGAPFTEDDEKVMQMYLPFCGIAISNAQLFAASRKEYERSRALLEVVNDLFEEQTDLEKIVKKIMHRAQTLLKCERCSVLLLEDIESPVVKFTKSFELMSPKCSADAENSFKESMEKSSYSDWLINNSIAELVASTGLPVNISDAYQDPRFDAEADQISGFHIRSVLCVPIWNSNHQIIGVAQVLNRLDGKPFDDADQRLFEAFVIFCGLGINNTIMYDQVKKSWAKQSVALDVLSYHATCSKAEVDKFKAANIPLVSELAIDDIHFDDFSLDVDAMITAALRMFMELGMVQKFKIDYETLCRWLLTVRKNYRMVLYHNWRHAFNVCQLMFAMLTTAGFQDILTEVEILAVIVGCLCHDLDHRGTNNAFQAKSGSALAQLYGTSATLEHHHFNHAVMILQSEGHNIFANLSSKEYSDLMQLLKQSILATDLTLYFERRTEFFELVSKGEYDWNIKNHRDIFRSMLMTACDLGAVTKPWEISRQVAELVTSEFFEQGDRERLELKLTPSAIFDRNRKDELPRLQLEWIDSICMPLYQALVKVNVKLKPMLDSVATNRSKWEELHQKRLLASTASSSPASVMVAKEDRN
UniProt Q9NRF9: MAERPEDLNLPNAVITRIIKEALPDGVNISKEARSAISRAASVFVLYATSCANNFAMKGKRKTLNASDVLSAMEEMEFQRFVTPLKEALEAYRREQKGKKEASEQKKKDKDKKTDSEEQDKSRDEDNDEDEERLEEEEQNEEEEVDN
UniProt Q9NSV4, whole entry: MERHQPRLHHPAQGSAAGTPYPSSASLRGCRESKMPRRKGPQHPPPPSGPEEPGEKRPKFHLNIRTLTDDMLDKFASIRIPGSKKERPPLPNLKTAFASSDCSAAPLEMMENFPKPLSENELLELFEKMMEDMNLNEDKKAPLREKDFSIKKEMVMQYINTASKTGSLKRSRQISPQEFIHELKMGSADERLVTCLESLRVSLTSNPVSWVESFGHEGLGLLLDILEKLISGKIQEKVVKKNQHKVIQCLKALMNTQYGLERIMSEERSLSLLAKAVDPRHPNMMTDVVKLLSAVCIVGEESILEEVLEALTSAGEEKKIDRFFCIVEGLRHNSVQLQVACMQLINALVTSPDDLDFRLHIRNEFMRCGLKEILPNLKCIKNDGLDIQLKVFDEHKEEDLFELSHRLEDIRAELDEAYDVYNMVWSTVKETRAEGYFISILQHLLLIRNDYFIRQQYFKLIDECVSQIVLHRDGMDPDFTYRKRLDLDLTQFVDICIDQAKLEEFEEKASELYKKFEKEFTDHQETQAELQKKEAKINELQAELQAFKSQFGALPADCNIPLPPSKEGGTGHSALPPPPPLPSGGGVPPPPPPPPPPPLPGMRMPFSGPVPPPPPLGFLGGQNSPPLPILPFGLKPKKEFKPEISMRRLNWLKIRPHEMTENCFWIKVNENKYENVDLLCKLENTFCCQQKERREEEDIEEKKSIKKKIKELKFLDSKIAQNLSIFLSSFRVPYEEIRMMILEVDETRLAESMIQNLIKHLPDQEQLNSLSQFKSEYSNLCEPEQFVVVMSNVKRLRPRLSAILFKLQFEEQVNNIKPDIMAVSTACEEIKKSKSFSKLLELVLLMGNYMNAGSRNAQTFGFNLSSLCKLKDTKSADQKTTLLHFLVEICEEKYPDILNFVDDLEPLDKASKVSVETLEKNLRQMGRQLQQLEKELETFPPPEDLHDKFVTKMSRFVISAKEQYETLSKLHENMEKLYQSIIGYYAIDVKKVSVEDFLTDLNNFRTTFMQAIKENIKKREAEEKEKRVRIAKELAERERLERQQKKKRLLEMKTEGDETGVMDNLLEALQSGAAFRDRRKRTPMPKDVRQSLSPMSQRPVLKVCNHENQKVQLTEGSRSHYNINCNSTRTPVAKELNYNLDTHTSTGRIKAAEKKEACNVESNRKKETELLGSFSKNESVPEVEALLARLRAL
UniProt Q9NV56, whole entry: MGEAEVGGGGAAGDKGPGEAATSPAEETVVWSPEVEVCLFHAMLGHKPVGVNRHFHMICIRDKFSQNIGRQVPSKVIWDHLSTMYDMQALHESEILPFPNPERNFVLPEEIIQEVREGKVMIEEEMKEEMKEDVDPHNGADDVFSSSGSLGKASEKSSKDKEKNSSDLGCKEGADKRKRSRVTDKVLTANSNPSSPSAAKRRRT
UniProt Q9NV35: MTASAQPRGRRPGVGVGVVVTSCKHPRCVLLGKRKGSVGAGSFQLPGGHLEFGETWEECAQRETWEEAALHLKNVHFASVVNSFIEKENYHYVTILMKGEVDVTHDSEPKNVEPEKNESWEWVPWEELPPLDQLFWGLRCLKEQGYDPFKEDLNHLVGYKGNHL
UniProt Q9NRG1: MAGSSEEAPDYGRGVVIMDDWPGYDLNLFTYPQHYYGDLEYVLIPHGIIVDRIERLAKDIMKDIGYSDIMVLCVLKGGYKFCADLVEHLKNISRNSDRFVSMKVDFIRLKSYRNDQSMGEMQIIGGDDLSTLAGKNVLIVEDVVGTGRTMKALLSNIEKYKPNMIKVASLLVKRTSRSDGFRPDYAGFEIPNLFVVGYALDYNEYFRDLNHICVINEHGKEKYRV
UniProt Q9NTN3, whole entry, looked up: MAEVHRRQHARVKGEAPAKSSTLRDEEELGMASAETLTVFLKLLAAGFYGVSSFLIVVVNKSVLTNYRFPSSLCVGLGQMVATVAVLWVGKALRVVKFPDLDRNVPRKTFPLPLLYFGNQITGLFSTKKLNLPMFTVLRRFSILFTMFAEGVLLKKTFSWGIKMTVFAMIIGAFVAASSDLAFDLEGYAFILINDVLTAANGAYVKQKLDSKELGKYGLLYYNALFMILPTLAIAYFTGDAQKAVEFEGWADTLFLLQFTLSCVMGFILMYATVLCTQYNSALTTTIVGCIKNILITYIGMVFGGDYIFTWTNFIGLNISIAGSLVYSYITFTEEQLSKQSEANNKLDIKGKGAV
UniProt Q9NPA8: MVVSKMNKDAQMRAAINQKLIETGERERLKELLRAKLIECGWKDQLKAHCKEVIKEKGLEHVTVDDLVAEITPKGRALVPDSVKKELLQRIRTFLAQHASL
UniProt Q9NPD3, whole entry: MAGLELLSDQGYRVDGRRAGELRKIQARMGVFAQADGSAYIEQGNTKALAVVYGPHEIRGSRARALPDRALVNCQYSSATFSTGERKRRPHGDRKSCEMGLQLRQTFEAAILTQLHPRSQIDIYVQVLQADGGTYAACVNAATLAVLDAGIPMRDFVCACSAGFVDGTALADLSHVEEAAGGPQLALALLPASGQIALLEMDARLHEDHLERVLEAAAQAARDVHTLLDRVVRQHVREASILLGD

What follows are targets tested with Cc1nc(Nc2ncc(C(=O)Nc3c(C)cccc3Cl)s2)cc(N2CCN(CCO)CC2)n1 [dasatinib] (assay: log2 fold change of tryptic peptide abundance, ligand vs vehicle (limited proteolysis) (log2 ratio); higher = more trypsin-susceptible (destabilized)). Conditions: ligand concentration: 5 uM; sample: K562 cleared lysate.
In the case of “EXOSC3 (peptide sequence: RYVPVKGDHVIGIVTAK, peptide start residue: 108) (UniProt Q9NQT5)”, the log2 fold change is reported as -0.448.
In the case of “GOPC (peptide sequence: RPMQAPPGHDQDSLKK, peptide start residue: 264) (UniProt Q9HD26)”, the log2 fold change is reported as 0.179.
“UniProt Q9NW81 (peptide sequence: LGAAVAPEGNQKK, peptide start residue: 25)” gave a log2 fold change of 0.472.
With “HMG20A (peptide sequence: KSNMEFEER, peptide start residue: 241) (UniProt Q9NP66)” the log2 fold change was -0.103.
Work on “VTA1 (peptide sequence: IDSKTPECR, peptide start residue: 49) (UniProt Q9NP79)” yielded a log2 fold change of -0.533.
“DDX4 (peptide sequence: DLMACAQTGSGK, peptide start residue: 219) (UniProt Q9NQI0)” was tested, and the log2 fold change was 0.0449.
“RGS18 (peptide sequence: ETRVSPEEAVK, peptide start residue: 72) (UniProt Q9NS28)” was tested, and the log2 fold change was 0.0143.
Target “ZDBF2 (peptide sequence: VDSVRNLKK, peptide start residue: 1795) (UniProt Q9HCK1)” has a log2 fold change of -0.0415.
In the case of “SRA1 (peptide sequence: RMALLVQELSSHR, peptide start residue: 148) (UniProt Q9HD15)”, the log2 fold change is reported as 0.332.
For “ECHDC1 (peptide sequence: LLHQTGLSLYSTSHGFYEEEVKK, peptide start residue: 23) (UniProt Q9NTX5)”, the log2 fold change was -0.0959.
With “UniProt Q9HCM1 (peptide sequence: TAFLPNKDVYKK, peptide start residue: 1338)” the log2 fold change was -0.212.
With “STRN4 (peptide sequence: RCTVDGSPHELESR, peptide start residue: 336) (UniProt Q9NRL3)” the log2 fold change was 0.102.
“LMBRD1 (peptide sequence: DGRPLPAR, peptide start residue: 257) (UniProt Q9NUN5)” was tested, and the log2 fold change was -0.135.
With “PFDN4 (peptide sequence: KAAAEDVNVTFEDQQK, peptide start residue: 7) (UniProt Q9NQP4)” the log2 fold change was -0.0596.
With “UniProt Q9HCR9 (peptide sequence: KGKQEMVEK, peptide start residue: 29)” the log2 fold change was 0.203.
“CHD8 (peptide sequence: SRPTPQDYEMR, peptide start residue: 2034) (UniProt Q9HCK8)” was tested, and the log2 fold change was -0.251.
“POLE3 (peptide sequence: EALEAYRR, peptide start residue: 87) (UniProt Q9NRF9)” showed a log2 fold change of -0.153.
Work on “PAK1IP1 (peptide sequence: MVEMLEKK, peptide start residue: 375) (UniProt Q9NWT1)” yielded a log2 fold change of -0.311.
With “UniProt Q9NUP7 (peptide sequence: TSLETSNSTTK, peptide start residue: 378)” the log2 fold change was -0.398.
In the case of “UniProt Q9NVH0 (peptide sequence: TSPVTQQPQQK, peptide start residue: 36)”, the log2 fold change is reported as -0.288.
For “DIAPH3 (peptide sequence: KVSVEDFLTDLNNFR, peptide start residue: 991) (UniProt Q9NSV4)”, the log2 fold change was 0.794.
“PANK4 (peptide sequence: FDELLHLASR, peptide start residue: 235) (UniProt Q9NVE7)” gave a log2 fold change of 0.747.
Work on “PARPBP (peptide sequence: SPTQVNNSIKPLR, peptide start residue: 396) (UniProt Q9NWS1)” yielded a log2 fold change of 0.343.
With “UniProt Q9NV56 (peptide sequence: VTDKVLTANSNPSSPSAAKR, peptide start residue: 182)” the log2 fold change was -0.352.
“NUDT15 (peptide sequence: EQGYDPFKEDLNHLVGYK, peptide start residue: 143) (UniProt Q9NV35)” showed a log2 fold change of -0.15.
Target “UniProt Q9NT68 (peptide sequence: KPSKYCSWK, peptide start residue: 366)” has a log2 fold change of 0.0781.
In the case of “INPP5E (peptide sequence: TANKVDSDLADYK, peptide start residue: 208) (UniProt Q9NRR6)”, the log2 fold change is reported as 1.02.
“UBN1 (peptide sequence: MLEEEKDKEQR, peptide start residue: 478) (UniProt Q9NPG3)” was tested, and the log2 fold change was -0.309.
In the case of “PRTFDC1 (peptide sequence: DLNHICVINEHGKEK, peptide start residue: 208) (UniProt Q9NRG1)”, the log2 fold change is reported as -0.384.
“EXOC1 (peptide sequence: KESAVKQETESLHGSSGK, peptide start residue: 449) (UniProt Q9NV70)” gave a log2 fold change of -0.867.
Target “INTS9 (peptide sequence: RAEVLALPFKR, peptide start residue: 501) (UniProt Q9NV88)” has a log2 fold change of -0.144.
Target “PICK1 (peptide sequence: VSTGNYEYR, peptide start residue: 287) (UniProt Q9NRD5)” has a log2 fold change of -0.276.
With “SNRK (peptide sequence: YNIPLVSYK, peptide start residue: 280) (UniProt Q9NRH2)” the log2 fold change was -0.335.
Work on “MAN2C1 (peptide sequence: TSYVLTDR, peptide start residue: 126) (UniProt Q9NTJ4)” yielded a log2 fold change of 0.0559.
For “SLC35D1 (peptide sequence: QKLDSKELGK, peptide start residue: 207) (UniProt Q9NTN3)”, the log2 fold change was 0.248.
In the case of “UniProt Q9NPA8 (peptide sequence: MNKDAQMR, peptide start residue: 6)”, the log2 fold change is reported as 0.209.
In the case of “EXOSC4 (peptide sequence: DVHTLLDR, peptide start residue: 223) (UniProt Q9NPD3)”, the log2 fold change is reported as -0.117.
